Measured values taken from PubChem BioAssay AID493014 (National Center for Advancing Translational Sciences (NCATS), 2011).
Some of the results follow. Shown are side measurements of this screen, not its main read-out; they come without a call. Compounds called inactive in the main read-out are mostly missing here. The note in brackets gives the kind of curve behind each potency; many fits are weak.

Test: qHTS Assay to Find Inhibitors of Chronic Active B-Cell Receptor Signaling
Conditions: ABC-DLBCL IkBa-CBG/CBR reporter, luminescence ratio (green luciferase fused to IkBa over red control in TMD8 lymphoma cells), 4 h
Procedure, shortened: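 Concentration-response series (up to 46 uM) were applied to TMD8 dual-reporter cells for 4 h at 37C with doxycycline. Green/red ratio, after filter-overlap correction, defined %Activity; red signal alone was normalised to basal cells and zero luminescence.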

[1] = measured here: CBR red luminescence, cell number
[2] = measured here: IkBa-CBG green luminescence

| SMILES | AC50 [1] | AC50 [2] |
| --- | --- | --- |
| COCc1cc(OC(=O)N(C)C)nc(-c2ccc(C)c(Cl)c2)n1 | 0.112 µM [rising, full curve, poor fit] |  |
| O=c1[nH]cnc2[nH]ncc12 | 3.98 µM [rising, partial curve, poor fit] |  |
| CN(C)c1nc(-c2ccccc2)[n+](C)s1 | 3.16 µM [falling, partial curve] |  |
| CN(C)C(=O)Oc1ccc(OCc2cccc[n+]2C)cc1 | 20.6 µM [rising, partial curve, poor fit] |  |
| CN1C(=O)C(=Cc2ccc(SC3CCCCC3)o2)C(=O)N(C)C1=O | 3.55 µM [falling, full curve, poor fit] |  |
| COC(=O)C1=C(c2cccc(OCc3ccccc3)c2)C[C@@H]2CC[C@H]1N2C(=O)NC1CCN(Cc2ccccc2)CC1 | 29.1 µM [falling, single point] |  |
| OC(c1ccccc1)(c1ccccc1)C1CN2CCC1CC2 (centres undefined) | 10 µM [falling, partial curve, poor fit] |  |
| O=C(Cn1cc(C(=O)c2ccccc2F)c2ccccc21)NCc1ccco1 | 4.11 µM [rising, full curve, poor fit] |  |
| CSc1ccc(CN2CCN(Cc3ccccc3Cl)CC2)cc1 | 31.6 µM [rising, single point] |  |
| O=C1NC(=O)C(=Cc2ccc(-c3ccc(F)cc3O)o2)C(=O)N1 | 14.1 µM [rising, partial curve] | 25.1 µM [falling, single point] |
| Cc1ccccc1CN1C(=O)CN=C(c2ccccc2)c2cc(Cl)ccc21 | 11.2 µM [falling, single point] |  |
| O=C1/C(=C\c2ccc(Cl)cc2Cl)N2CCC1CC2 | 0.794 µM [falling, full curve, poor fit] |  |
| CC(C(=O)c1cn(C)c2ccccc12)c1ccccc1 (centres undefined) | 29.1 µM [falling, single point] |  |
| CCOP(=O)(OCC)C(NC(=O)C(Cl)Cl)C(Cl)(Cl)Cl (centres undefined) | 3.16 µM [falling, single point] |  |
| O=P(NC(c1ccccc1)c1ccccc1)(Oc1ccccc1)Oc1ccccc1 | 6.51 µM [rising, partial curve] |  |
| Cc1nc2cc(-c3cccc(F)c3)nn2c(C)c1CCC(=O)N1CCC2(CC1)OCCO2 | 3.16 µM [falling, full curve] |  |
| C[C@@H]1C[C@@H]2O[C@H]2/C=C\C=C\C(=O)Cc2c(Cl)c(O)cc(O)c2C(=O)O1 | 0.316 µM [falling, full curve, poor fit] |  |
| CCCCCCOc1ccc(CN2CCN(CC)CC2)cc1 | 29.1 µM [falling, single point] |  |
| O=C(Cn1c(=O)oc2ccccc21)Nc1ccc(F)c(F)c1 | 8.91 µM [falling, partial curve] |  |
| CNC(=O)Oc1cccc(-c2cn3cc(OC(=O)NC)ccc3n2)c1 | 8.2 µM [falling, partial curve, poor fit] |  |
| Nc1c(C(=O)OCC2CCCO2)c2nc3ccccc3nc2n1Cc1cccs1 (centres undefined) | 11.2 µM [falling, partial curve, poor fit] |  |

| SMILES | AC50 [1] | AC50 [2] |
| --- | --- | --- |
| CC(=O)Nc1ccc(N=Cc2c(O)n(Cc3ccco3)c(=O)[nH]c2=O)cc1 | 5.62 µM [falling, single point] |  |
| CC(=O)OCC[N+](C)(C)C | 25.9 µM [rising, single point] |  |
| CCN(CC)c1ccc(N=Cc2c(O)n(Cc3ccco3)c(=O)[nH]c2=O)cc1 | 3.16 µM [falling, partial curve, poor fit] |  |
| O=C(NC(=O)c1c(F)cccc1F)Nc1cc(Cl)c(F)c(Cl)c1F | 0.1 µM [falling, full curve, poor fit] |  |
| NC1=C([N+](=O)[O-])C(c2ccc3c(c2)OCO3)c2c(c3ccccc3oc2=O)O1 (centres undefined) | 1 µM [falling, full curve] |  |
| Cn1cccc1/C=N/NC(=O)c1cccs1 | 8.91 µM [falling, partial curve] |  |
| Clc1ccc2sc(C3CCNCC3)nc2c1 | 12.6 µM [falling, partial curve] |  |
| COC(=O)c1sc(NC(=O)c2cc(-c3ccccc3)nc3ccccc23)c(C#N)c1C | 15.8 µM [falling, partial curve, poor fit] |  |
| O=C(CC1CCCCC1)c1c(O)c2ccccc2oc1=O | 6.51 µM [falling, partial curve] |  |
| Cc1ccc(OCCOc2cccc(C=C3C(=O)NC(=O)NC3=O)c2)cc1 | 6.31 µM [falling, full curve] |  |
| CCCCCn1c(=O)c(C(=O)Nc2ccccc2)c(O)c2ccccc21 | 3.16 µM [falling, partial curve, poor fit] |  |
| CN1C(=O)/C(=C/c2cccn2-c2ccc3ccccc3c2)C(=O)NC1=S | 3.16 µM [falling, single point] |  |
| COc1ccc(C(=O)OC2CC[C@@]3(C)C4CCC5[C@]6(O)CC(O)[C@@]7(O)C(CN8CC(C)CCC8[C@@]7(C)O)[C@]6(O)C[C@@]53O[C@]24O)cc1OC (some centres undefined) | 20 µM [rising, single point] |  |
| CCOC(=O)c1cnc2c(C(=O)OCC)cnn2c1N | 3.98 µM [rising, partial curve, poor fit] |  |
| COc1ccc(OC)c(-n2c(O)c(/C=C3\C=Nc4ccccc43)c(=O)[nH]c2=O)c1 | 0.501 µM [rising, full curve, poor fit] |  |
| Cc1nc2cc(C(F)(F)F)ccc2n1C1CCN(Cc2nnnn2CCc2ccccc2)CC1 | 2.06 µM [falling, full curve] |  |
| O=C1NC(=O)N(Cc2ccco2)C(=O)/C1=C\c1cccn1CCOc1ccc(Cl)cc1 | 23.1 µM [rising, single point] | 16.4 µM [falling, partial curve, poor fit] |
| CCOC(=O)c1ccc(-[n+]2c(-c3ccccc3)cc(-c3ccccc3)cc2-c2ccccc2)cc1 | 16.4 µM [falling, single point] |  |
| COc1ccccc1-n1c(O)c(/C=N/N2CCCCC2)c(=O)n(-c2ccccc2OC)c1=S | 11.2 µM [falling, partial curve, poor fit] |  |
| CC[N+](CC)(CC)CCCCCCCCCC[N+](CC)(CC)CC | 0.00517 µM [falling, full curve, poor fit] |  |
| COc1cc(-c2noc(C)c2/C=C/c2ccc(OC(C)=O)cc2)cc(OC)c1OC | 8.91 µM [rising, partial curve] |  |

Ordered by molecular weight (high to low): 4 of the compounds above

| SMILES | AC50 [1] | AC50 [2] |
| --- | --- | --- |
| Cc1nc2cc(C(F)(F)F)ccc2n1C1CCN(Cc2nnnn2CCc2ccccc2)CC1 | 2.06 µM [falling, full curve] |  |
| COc1cc(-c2noc(C)c2/C=C/c2ccc(OC(C)=O)cc2)cc(OC)c1OC | 8.91 µM [rising, partial curve] |  |
| CCCCCn1c(=O)c(C(=O)Nc2ccccc2)c(O)c2ccccc21 | 3.16 µM [falling, partial curve, poor fit] |  |
| Cn1cccc1/C=N/NC(=O)c1cccs1 | 8.91 µM [falling, partial curve] |  |

Additional records follow.

| SMILES | AC50 [1] | AC50 [2] |
| --- | --- | --- |
| CSc1ccc(C(=O)C2CCCN(Cc3cc4ccccc4[nH]3)C2)cc1 (centres undefined) | 0.794 µM [falling, partial curve, poor fit] |  |
| CC(=O)Nc1cccc2c1Cc1ccccc1-2 | 17.8 µM [rising, partial curve] |  |
| COC(=O)C1=C(c2ccc(-c3ccccc3)c(F)c2)C[C@@H]2CC[C@H]1N2C(=O)NCC1CC1 | 23.1 µM [falling, partial curve, poor fit] |  |
| C/C(=N/OC(=O)N(C)C)c1ncc(C(F)(F)F)cc1N1CCOCC1 | 3.66 µM [rising, partial curve, poor fit] |  |
| O=[N+]([O-])c1cc(S(=O)(=O)c2ccc(O)c([N+](=O)[O-])c2)ccc1O | 0.651 µM [falling, full curve, poor fit] |  |
| CCC(=O)c1cn(Cc2ccc(C#N)cc2)c2ccccc12 | 7.31 µM [falling, partial curve, poor fit] |  |
| Cc1ccc(-n2c(/C=C/c3ccc(Br)s3)nc3ccccc3c2=O)cc1 | 4.47 µM [rising, full curve] |  |
| c1ccc(-c2ccc(-c3n(-c4ccccn4)c4ccccc4[n+]3-c3ccccn3)cc2)cc1 | 12.6 µM [falling, single point] |  |
| Nc1ccccc1C(=O)OCCOc1ccccc1 | 14.6 µM [falling, single point] |  |
| CCCSC1=NN2CCCC(=O)N=C2S1 | 10 µM [rising, partial curve, poor fit] |  |
| C[C@]12CC[C@@H]3c4ccc(O)c(O)c4CC[C@H]3[C@@H]1CC[C@@H]2O | 35.5 µM [falling, single point] |  |
| Clc1ccc(C(Cn2ccnc2)OCc2csc3c(Cl)cccc23)c(Cl)c1 (centres undefined) | 20.6 µM [falling, partial curve] |  |
| COC(=O)C1=C(c2ccc(OC)c(OC)c2)C[C@@H]2CC[C@H]1N2C(=O)N1CCOCC1 | 2.31 µM [rising, full curve] |  |
| CCCCCCNc1nc(OC)nc(N2CC3CC(C2)c2cccc(=O)n2C3)n1 (centres undefined) | 0.1 µM [rising, full curve, poor fit] |  |
| Cn1c(O)c(/C=N/N2CCCCC2)c(=O)[nH]c1=O | 32.6 µM [falling, partial curve, poor fit] |  |
| CCCCn1c(O)c(C(=O)/C=C/c2ccc3c(c2)OCO3)c(=O)[nH]c1=O | 2.82 µM [falling, full curve] |  |
| CC(C)CCn1c(N)c(C(=O)OCC2CCCO2)c2nc3ccccc3nc21 (centres undefined) | 11.2 µM [falling, partial curve] |  |
| O=c1[nH]c(=O)n(-c2cccc3ccccc23)c(O)c1C=NCc1ccc2c(c1)OCO2 | 2.31 µM [falling, single point] |  |
| Cc1ccc(OC(F)F)c(N2C(=O)C3C4CCC(O4)C3C2=O)c1 (centres undefined) | 0.00461 µM [falling, full curve, poor fit] |  |
| COc1ccc(C(=O)C2CCCN(Cc3cnc(C)s3)C2)cc1OC (centres undefined) | 17.8 µM [rising, partial curve, poor fit] |  |
